Experimental findings from paper PMC4300400, “Comparative biochemical analysis of three members of the Schistosoma mansoni TAL family: Differences in ion and drug binding properties” (Biochimie, 2015) are described below.

The chains behind the UniProt entries cited, without tags or fusion partners.
UniProt P51570: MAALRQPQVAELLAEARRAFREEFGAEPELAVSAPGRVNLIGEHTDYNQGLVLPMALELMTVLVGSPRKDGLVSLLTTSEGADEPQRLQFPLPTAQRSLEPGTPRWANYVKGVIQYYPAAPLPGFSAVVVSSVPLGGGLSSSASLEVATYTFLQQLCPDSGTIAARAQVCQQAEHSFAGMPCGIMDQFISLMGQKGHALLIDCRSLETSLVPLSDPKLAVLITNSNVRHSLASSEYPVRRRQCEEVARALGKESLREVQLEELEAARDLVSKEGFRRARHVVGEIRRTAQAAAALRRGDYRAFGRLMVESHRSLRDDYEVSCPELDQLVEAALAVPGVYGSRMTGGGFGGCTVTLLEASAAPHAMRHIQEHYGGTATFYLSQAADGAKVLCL

The test deals with recombinant human galactokinase (human) (UniProt P51570). The test is described as follows: cross-linking; BS3 (50, 150, 500 μM) with 10-15 μM protein in buffer R (50 mM Hepes-OH pH 7.5, 150 mM NaCl, 10% v/v glycerol), 37 °C, 35 min; with 0.8 mM EGTA or 0.8 mM EGTA/1.6 mM calcium chloride; analysed by 15% SDS-PAGE; both purified.

No constants are given. Whether binding was seen depends on the method and setting.

“recombinant human galactokinase (from UniProt P51570 1-392) (enzyme)”: the binding result is “no binding (tested: 15 μM)”.
